Values quoted from earlier work as cited in US20230414634A1, “METHODS FOR TREATING CHOLESTATIC PRURITUS” (GlaxoSmithKline Intellectual Property (No.2) Limited, priority 2020, published 2023).
For at least one compound, name, drawing or mass did not settle the structure.

System: itch in a patient population with a variety of liver diseases
Details: in vivo; cited from earlier work

## CN(C(=O)/C=C/c1ccoc1)[C@@H]1CC[C@@]2(O)[C@H]3Cc4ccc(O)c5c4[C@@]2(CCN3CC2CC2)[C@H]1O5 [Nalfurafine]
  itch: small but significant improvements
